In article PMC8743267 one finds binding data, which are given here for 2 molecules.

By UniProt entry, the sequences of proteins in these tests, tags left out. Residues count along the entry.
UniProt P05362, residues 28-532: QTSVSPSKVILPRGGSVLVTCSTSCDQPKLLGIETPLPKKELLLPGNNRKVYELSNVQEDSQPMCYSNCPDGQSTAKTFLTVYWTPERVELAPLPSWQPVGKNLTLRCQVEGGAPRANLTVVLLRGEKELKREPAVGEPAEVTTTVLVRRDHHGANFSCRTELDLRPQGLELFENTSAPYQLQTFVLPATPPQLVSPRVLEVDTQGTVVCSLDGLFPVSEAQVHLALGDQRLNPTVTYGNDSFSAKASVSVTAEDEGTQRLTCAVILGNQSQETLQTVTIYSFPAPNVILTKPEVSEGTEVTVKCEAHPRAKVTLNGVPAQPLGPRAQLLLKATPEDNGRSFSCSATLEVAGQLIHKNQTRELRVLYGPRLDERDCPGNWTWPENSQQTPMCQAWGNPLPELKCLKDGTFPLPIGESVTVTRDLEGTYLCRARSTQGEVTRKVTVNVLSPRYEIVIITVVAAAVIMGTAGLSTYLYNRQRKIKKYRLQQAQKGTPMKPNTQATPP

No constants are given. Whether binding was seen depends on the method and setting. In cells and extracts the contact can be indirect. Some results given as binding are weak or reduced against the parent protein; the word gives no strength. For some assays here: Tags and fused reporters may be left off the sequences shown.

The target in one test is T1, PLLP-GFP (human) (UniProt Q9Y342).
T1 sequence: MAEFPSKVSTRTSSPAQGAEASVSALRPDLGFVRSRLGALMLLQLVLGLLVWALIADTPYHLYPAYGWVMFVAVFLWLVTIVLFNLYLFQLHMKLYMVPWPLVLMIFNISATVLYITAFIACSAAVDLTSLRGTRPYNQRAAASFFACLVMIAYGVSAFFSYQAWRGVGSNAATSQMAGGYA
The experiment in a line: co-IP; lysates of HepG2 cells stably expressing PLLP-GFP (TNE buffer: 50 mM Tris pH 7.4, 150 mM NaCl, 5 mM EDTA, with 1% Triton-X100), anti-GFP antibody on protein A-Sepharose, 3 h at 4 °C; rabbit IgG as control; western blot. In general terms: A western blot detects proteins with antibodies after separation by electrophoresis.

In test [1] the target is Intercellular adhesion molecule (ICAM)-1 (human (endogenous in HepG2)) (UniProt P05362). The experiment in a line: co-IP; endogenous basolateral ICAM-1 labeled on HepG2 cells with anti-ICAM-1 antibody at 4 °C, cells incubated at 37 °C for the indicated times, lysed in TNE + TX100, post-nuclear supernatant incubated with protein G-Sepharose 3 h at 4 °C; ICAM-1_KO cells as control; western blot.

On to “Intercellular adhesion molecule (ICAM)-1 (from UniProt P05362 28-532) (receptor)”, for which, in the test with PLLP-GFP (human), the binding result is on record as “binds”.

B1: plasmolipin (PLLP) (protein, UniProt Q9Y342 1-182)
chain: MAEFPSKVSTRTSSPAQGAEASVSALRPDLGFVRSRLGALMLLQLVLGLLVWALIADTPYHLYPAYGWVMFVAVFLWLVTIVLFNLYLFQLHMKLYMVPWPLVLMIFNISATVLYITAFIACSAAVDLTSLRGTRPYNQRAAASFFACLVMIAYGVSAFFSYQAWRGVGSNAATSQMAGGYA
In the case of B1, the binding result in test [1] was “binds”.
